Test results taken from PubChem BioAssay AID316 (DTP/NCI, 2004).
The list is a part of this screen's results and no random one: it gathers tests that were run many times, whatever their T/C, doses with no T/C, and many T/C values between a quarter and a half above the control. Other doses and runs of a compound stand elsewhere. T/C: endpoint of the treated group in % of that of the vehicle group. Some doses have a count of surviving animals in place of a T/C: the source holds a T/C of zero for them, seemingly a mark for toxic or unscored doses. Some survivor counts are full or nearly so, which does not show that the dose was tolerated: survival well below the control is almost never listed, so the zero probably covers shortened survival too. Survivors were counted at the toxicity check, usually on the fifth day, unless a day is given; later deaths do not show. Schedule codes are those of the source, taken here to give the interval after Q, in days (D) or hours (H), and the number of doses after X. Some entries hold several experiments; their values stand side by side, smallest first. For survival time, this PubChem deposit counts one and a half times the control or more as active, and values a quarter to a half above the control carry no call in these data; other NCI protocols may use other cut-offs. Some T/C values are followed by the survivors on the day toxicity was checked, most often the fifth; where none is given, no animal had died by that day.

Test system: P1534 leukemia ip, CD2F1 mice, survival T/C
Test: NCI In Vivo Anticancer Drug Screen. Data for tumor model P1534 Leukemia (intraperitoneal) in CD2F1 (CDF1) mice
Conditions: higher T/C = longer survival
Protocol: The antitumor activity of compounds was measured in mice bearing transplantable tumors. Survival or tumor size were measured and the results are expressed as the measurement made in the treated group (T) divided by the measurement made in the vehicle treated control group (C). The tumor model used in this assay is P1534 Leukemia (intraperitoneal) in CD2F1 (CDF1) mice

[1] = T/C endpoint: mean survival time, dose: 100.0 mg/kg/injection, schedule: Q01DX010 (ip), vehicle: saline
[2] = T/C endpoint: mean survival time, dose: 200.0 mg/kg/injection, schedule: Q01DX010 (ip), vehicle: saline
[3] = T/C endpoint: mean survival time, dose: 500.0 mg/kg/injection, schedule: Q01DX010 (ip), vehicle: saline
[4] = T/C endpoint: mean survival time, dose: 250.0 mg/kg/injection, schedule: Q01DX010 (ip), vehicle: saline
[5] = T/C endpoint: mean survival time, dose: 125.0 mg/kg/injection, schedule: Q01DX010 (ip), vehicle: saline
[6] = T/C endpoint: mean survival time, dose: 400.0 mg/kg/injection, schedule: Q01DX010 (ip), vehicle: saline

## CCc1c(CC(=O)O)c2cc(C)ccc2n1Cc1ccc(Cl)cc1
T/C endpoint: mean survival time, dose: 25.0 mg/kg/injection, schedule: Q01DX010 (ip), vehicle: saline
  survivor count: 6 of 6
[1]
  survivor count: 5 of 6
[2]
  survivor count: 0 of 6

## N[C@@H](Cc1ccc(N(CCCl)CCCl)cc1)C(=O)O
T/C endpoint: mean survival time, dose: 5.0 mg/kg/injection, schedule: Q01DX010 (ip), vehicle: saline
  survivor count: 6 of 6
T/C endpoint: mean survival time, dose: 10.0 mg/kg/injection, schedule: Q01DX010 (ip), vehicle: saline
  survivor count: 6 of 6

## C[C@H]1/C(=C/C(=O)OCCN(C)C)CC[C@H]2[C@H]1C(=O)C[C@H]1C(C)(C)[C@@H](O)CC[C@]21C
T/C endpoint: mean survival time, dose: 2.0 mg/kg/injection, schedule: Q01DX010 (ip), vehicle: saline
  survivor count: 5 of 6
T/C endpoint: mean survival time, dose: 16.0 mg/kg/injection, schedule: Q01DX010 (ip), vehicle: saline
  survivor count: 5 of 6

## CN1C2CCC1CC(OC(=O)C(CO)c1ccccc1)C2 (stereo unspecified)
[1]
  survivor count: 5 of 6
[2]
  survivor count: 0 of 6

## CC(=O)N(C)C
[3]
  survivor count: 6 of 6

## C1CCNC1
T/C endpoint: mean survival time, dose: 50.0 mg/kg/injection, schedule: Q01DX010 (ip), vehicle: saline
  survivor count: 5 of 6
[1]
  survivor count: 0 of 6

## Clc1[nH]nc2ccccc12
[4]
  survivor count: 6 of 6
[3]
  survivor count: 6 of 6

## Nc1nncs1
T/C endpoint: mean survival time, dose: 15.0 mg/kg/injection, schedule: Q01DX010 (ip), vehicle: saline
  survivor count: 6 of 6
T/C endpoint: mean survival time, dose: 30.0 mg/kg/injection, schedule: Q01DX010 (ip), vehicle: saline
  survivor count: 6 of 6
T/C endpoint: mean survival time, dose: 60.0 mg/kg/injection, schedule: Q01DX010 (ip), vehicle: saline
  survivor count: 6 of 6

## COc1ccc2c(c1OC)C(=O)O[C@@H]2[C@H]1c2c(cc3c(c2OC)OCO3)CCN1C
[5]
  survivor count: 6 of 6
[4]
  survivor count: 3 of 6
[3]
  survivor count: 0 of 6

## CC1CCOS(=O)O1 (stereo unspecified)
T/C endpoint: mean survival time, dose: 80.0 mg/kg/injection, schedule: Q01DX010 (ip), vehicle: saline
  survivor count: 6 of 6

## O=c1ccc2ccccc2o1
[6]
  survivor count: 4 of 6

## C[C@H](N)C(=O)N[C@@H]1[C@H]2C(=C(O)C[C@@H](O)[C@@H]2O)C(=O)O[C@@H]1C
T/C endpoint: mean survival time, dose: 150.0 mg/kg/injection, schedule: Q01DX010 (ip), vehicle: saline
  T/C: 101, 103, 104, 105 % of control
T/C endpoint: mean survival time, dose: 300.0 mg/kg/injection, schedule: Q01DX010 (ip), vehicle: saline
  T/C: 102, 105, 114, 125 % of control [5 of 6 alive]
T/C endpoint: mean survival time, dose: 600.0 mg/kg/injection, schedule: Q01DX010 (ip), vehicle: saline
  T/C: 109, 110, 115, 117 % of control
T/C endpoint: mean survival time, dose: 1200.0 mg/kg/injection, schedule: Q01DX010 (ip), vehicle: saline
  T/C: 91, 97, 111, 119 % of control
T/C endpoint: mean survival time, dose: 2400.0 mg/kg/injection, schedule: Q01DX010 (ip), vehicle: saline
  survivor count: 1 of 6, 2 of 6, 3 of 6

## COc1cc2c3c(c4cc(OC)c(OC)cc4c2cc1OC)CN1CCC[C@H]1C3
T/C endpoint: mean survival time, dose: 15.6 mg/kg/injection, schedule: Q01DX010 (ip), vehicle: saline
  survivor count: 6 of 6
T/C endpoint: mean survival time, dose: 31.3 mg/kg/injection, schedule: Q01DX010 (ip), vehicle: saline
  survivor count: 6 of 6
T/C endpoint: mean survival time, dose: 62.5 mg/kg/injection, schedule: Q01DX010 (ip), vehicle: saline
  survivor count: 6 of 6
[5]
  survivor count: 6 of 6
[4]
  survivor count: 6 of 6

## COc1c(OC2OC(CO)C(O)C(O)C2O)cc2c(c1OC)-c1ccc(OC)c(=O)cc1C(NC(C)=O)CC2 (stereo unspecified)
[1]
  survivor count: 6 of 6
[2]
  survivor count: 4 of 6
[6]
  survivor count: 0 of 6

## CC(=O)c1ccc[nH]1
[4]
  survivor count: 6 of 6
[3]
  survivor count: 6 of 6

## c1ccc2ncccc2c1
[2]
  survivor count: 0 of 6

## CCCCNc1ncnc2c1cnn2C
[5]
  survivor count: 2 of 6 and 5 of 6
[4]
  survivor count: 0 of 6

## CN(Cc1cnc2nc(N)nc(N)c2n1)c1ccc(C(=O)N[C@@H](CCC(=O)O)C(=O)O)cc1
T/C endpoint: median survival time, dose: 2.0 mg/kg/injection, schedule: Q01DX009 (ip), vehicle: sodium bicarbonate
  T/C: 134 % of control
